These results are taken from paper PMC12109561, “LPS2336, a New TREK-1 Channel Activator Identified by High Throughput Screening” (Biomolecules, 2025).

The chains behind the UniProt entries cited, without tags or fusion partners. Where a name states a change or a piece, a line headed by the entry shows the natural chain unless it says otherwise.
UniProt O95069: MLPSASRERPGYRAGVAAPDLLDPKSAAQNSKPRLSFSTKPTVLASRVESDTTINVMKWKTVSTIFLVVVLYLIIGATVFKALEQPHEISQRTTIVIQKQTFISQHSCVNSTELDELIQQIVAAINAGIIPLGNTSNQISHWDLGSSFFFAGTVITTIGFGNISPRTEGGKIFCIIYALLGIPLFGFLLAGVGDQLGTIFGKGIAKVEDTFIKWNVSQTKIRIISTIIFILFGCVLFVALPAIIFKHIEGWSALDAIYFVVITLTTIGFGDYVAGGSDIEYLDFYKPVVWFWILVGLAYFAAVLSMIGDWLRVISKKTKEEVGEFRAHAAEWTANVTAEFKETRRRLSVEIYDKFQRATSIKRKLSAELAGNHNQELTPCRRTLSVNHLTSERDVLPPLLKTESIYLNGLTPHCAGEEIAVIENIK

The test deals with T1, hTREK-1 (Homo sapiens, UniProt O95069).
T1 sequence (O95069 1-422 isoform O95069-3): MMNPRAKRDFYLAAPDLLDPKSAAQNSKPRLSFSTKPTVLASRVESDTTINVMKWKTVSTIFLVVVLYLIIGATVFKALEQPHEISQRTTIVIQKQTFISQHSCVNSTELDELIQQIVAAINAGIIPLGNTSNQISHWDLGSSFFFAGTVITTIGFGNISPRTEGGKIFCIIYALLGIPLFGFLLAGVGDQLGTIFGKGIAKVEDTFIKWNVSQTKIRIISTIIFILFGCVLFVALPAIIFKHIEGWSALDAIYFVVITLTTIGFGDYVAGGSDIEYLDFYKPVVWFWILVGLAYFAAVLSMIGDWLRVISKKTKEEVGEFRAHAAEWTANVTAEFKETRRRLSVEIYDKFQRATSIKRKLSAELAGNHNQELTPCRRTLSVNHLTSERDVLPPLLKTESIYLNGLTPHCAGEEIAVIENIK
Nature of the test: Whole cell patch clamp on HEK-hTREK-1 cells. Type of test: cell-based. Also noted: transfected with the human Kcnk2 (NM_001017424) or Kcnk10 (NM_021161) ORF cloned in a pEZ-M02 expression vector. (In general: Patch clamp records ionic current or voltage across a cell membrane.)

In the case of `Nc1nc2ccc(OC(F)(F)F)cc2s1` [Riluzole, riluzole], the “increase of mean current density recorded at 0 mV” value is given as 2.23 fold.
